# Source: the supplement of paper PMC11150407
# Out of some 3,000 compounds screened, about 45 (2%) showed an effect of 50% or more. Some of the results follow.
# System: MOLM1 and UCSD/AML1 (averaged)
# Experiment: cell viability relative to DMSO control (POC); higher = less growth inhibition
# Conditions: 1 µM; 72 h
# Procedure: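 Primary viability screen in the 3q26 EVI1-high AML cell lines MOLM1 and UCSD/AML1, compounds at 1 uM for 72 h. ATP CellTiter-Glo read-out given as percent viable over DMSO control (POC), averaged over duplicates. This mapping covers the TimTec NDL-3000 natural derivative library, whose compounds are identified by TimTec catalogue codes (ST...).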
row,Compound,cell viability
1,COc1cc(C2C3CCCCC3(O)CCN2CC(=O)Nc2cc(C)ccc2C)cc(OC)c1OC (configuration not stated),96.7%
2,COc1ccc2c(c1)c(CC(=O)Nc1ccc(Cl)cn1)c(C)n2C(=O)c1ccc(Cl)cc1,87.1%
3,COc1cc(OC)cc(C(=O)NCc2cccs2)c1,97.9%
4,CCOC(=O)C1=C(N)Oc2c(oc(CO)cc2=O)C1c1cccnc1 (configuration not stated),105%
5,Cc1ccc(C)c(S(=O)(=O)NC(Cc2c[nH]c3ccccc23)C(=O)O)c1 (configuration not stated),102%
6,Cc1ccc(C(=O)NCCc2c(C)[nH]c3ccc(C)cc23)cc1,100%
7,CCN(CC)C(=O)c1cc(=O)n(CC(=O)Nc2c(C)cc(C)cc2C)c2ccccc12,92.9%
8,Nc1[nH]c(=O)ncc1F,98.4%
9,COc1cc(NC(=O)CSc2nc3c(=O)[nH]cnc3n2C)cc(OC)c1,93.1%
10,COc1c(I)cc(Oc2c(I)cc(CC(N)C(=O)O)cc2I)cc1I (configuration not stated),89.7%
11,COCC(=O)OCC1CCC[N+]2(C)CCCCC12 (configuration not stated),95.7%
12,CCc1ccc(NCCC(=O)c2ccc3c(c2)OCO3)cc1,98.9%
13,O=C(/C=C/c1ccccc1)c1ccc(O)cc1,2.68%
14,O=C(CSc1nc2ccccc2c(=O)[nH]1)c1ccccc1,97%
15,COc1cc(C(=O)Nc2nc(-c3ccc4c(c3)OCCO4)cs2)cc(OC)c1OC,107%
16,Nc1nc2ncc(CNc3ccc(C(=O)N[C@H](CCC(=O)O)C(=O)O)cc3)nc2c(=O)[nH]1,102%
17,CC1(C)CC(=O)C2=C(C1)Nc1ccccc1NC2c1ccc(OCc2cccc(Cl)c2)cc1 (configuration not stated),103%
18,Cc1cc2c(C(C)C)c(O)c(O)c(C=NCCOc3ccc4oc5ccccc5c4c3)c2c(O)c1-c1c(C)cc2c(C(C)C)c(O)c(O)c(C=NCCOc3ccc4oc5ccccc5c4c3)c2c1O,99.7%
19,CC(=O)OC1C(OC(=O)c2ccc(C)cc2)C(COC(=O)c2ccc(C)cc2)OC1n1cc(I)c(=O)[nH]c1=O (configuration not stated),105%
20,Cc1ccc(-c2cc(=O)c3ccccc3o2)cc1,92.3%
21,CCc1c(O)c2ccccc2n(Cc2ccccc2)c1=O,97.6%
22,COc1ccc(C(=O)N2CCN(Cc3cc(=O)oc4cc(C)ccc34)CC2)c(OC)c1,93%
23,O=C(Cn1c(=O)cc(C(=O)NCc2ccccc2)c2ccccc21)Nc1cccc(F)c1,102%
24,CCOc1cc(C2C(C(=O)OCCOC(C)C)=C(C)NC3=C2C(=O)CC(c2ccc(OC)c(OC)c2)C3)ccc1O (configuration not stated),108%
25,CN(C(=O)CSc1nc(N)cc(=O)[nH]1)c1ccccc1,106%
26,O=C(CSc1nc2ccccc2c(=O)[nH]1)Nc1ccccc1,83.6%

row,Compound,cell viability
1,COC(=O)COc1ccc2c(c1)O/C(=C\c1ccc(OC)cc1)C2=O,89.3%
2,CC1CCc2nc(S[C@H]3CC(=O)[C@@H]4OC[C@H]3O4)nc(C(F)(F)F)c2C1 (some centres not stated),39.9%
3,COc1cc(C(=O)O)nc2ccccc12,96%
4,O=C(O)[C@@H]1Cc2ccccc2N1,122%
5,NC(CCCC(=O)O)C(=O)O (configuration not stated),96%
6,CCCNC(=O)c1cc(=O)n(CC(=O)Nc2cccc(C)c2)c2ccccc12,90.9%
7,COc1cc2c(c(NC(=O)c3nn(-c4ccccc4)nc3C)c1OC)C(=O)OC2,99.1%
8,Cc1cc2c(C(C)C)c(O)c(O)c(C=NCCOc3ccc4c(c3)OCO4)c2c(O)c1-c1c(C)cc2c(C(C)C)c(O)c(O)c(C=NCCOc3ccc4c(c3)OCO4)c2c1O,98.1%
9,COc1cc(/C=C2/SC(=Nc3cccc(Cl)c3Cl)NC2=O)cc2c1OCO2,103%
10,COc1ccc(C(C)=O)c(OC)c1,101%
11,COC(=O)c1cccc(CNC(=O)CN2CCc3ccccc3C2)c1,94.2%
12,CCOc1ccc(-c2nc(CSc3nc4c(=O)[nH]cnc4n3C)c(C)o2)cc1,101%
13,CCCCOc1ccc(C(=O)N/C(=C\c2ccc(Cl)cc2)C(=O)NCCc2c(C)[nH]c3ccccc23)cc1,106%
14,Cc1[nH]c2ccccc2c1CCNC(=O)c1ccccc1NC(=O)c1cccs1,103%
15,COc1cccc(C2NCCc3c2[nH]c2ccccc32)c1OC (configuration not stated),80.9%
16,O=c1ccc2cc(S(=O)(=O)N3CCCCC3)ccc2o1,108%
17,COc1cc(C(=O)Nc2ccccc2C(=O)NCc2ccccc2)cc(OC)c1OC,85.2%
18,O=C(Nc1cccc(Cl)c1Cl)c1c(O)c2ccccc2[nH]c1=O,98%
19,Cc1ccc2occ(C)c(=O)c2c1,98.5%
20,CCCNC(=O)c1cc(=O)n(CC(=O)Nc2cccc(Cl)c2)c2ccccc12,91.1%
21,CCN(CC)c1ccc(C2C3CCCCC3(O)CCN2C(=O)/C=C/c2cc(OC)c(OC)c(OC)c2)cc1 (configuration not stated),89.1%
22,Cc1ccc(-n2c(SCC(=O)Nc3ccc(F)c(Cl)c3)nc3c(=O)[nH]cnc32)cc1,116%
23,CC[C@H](c1ccc(O)cc1)[C@@H](CC)c1ccc(O)cc1,87.3%
24,N[C@@H](CC(=O)OCc1ccccc1)C(=O)O,96.4%
25,Cc1nc2c(nc(SCc3nc(-c4cccc(Cl)c4)oc3C)n2C)c(=O)[nH]1,108%
26,Cc1ccc2c(=O)c(O)c(-c3ccc(F)cc3)oc2c1,94%

row,Compound,cell viability
1,CCc1ccc2oc(=O)cc(CN3CCN(Cc4ccc(F)cc4Cl)CC3)c2c1,95.1%
2,COc1ccc(OC)c(C2Nc3ccccc3NC3=C2C(=O)CC(c2ccccc2Cl)C3)c1 (configuration not stated),98.3%
3,Cn1c2c(c(=O)n(C)c1=O)C1(C(=O)Nc3ccccc31)C(C#N)=C(N)O2 (configuration not stated),101%
4,NC(Cc1cccs1)C(=O)O (configuration not stated),97.4%
5,COc1cc(Cc2nccc3cc(OC)c(OC)cc23)c(NC(=O)c2cc(OC)c(OC)c(OC)c2)cc1OC,95.3%
6,COc1cc(C(=O)N2c3ccccc3C(C)=CC2(C)C)cc(OC)c1OC,29.3%
7,COc1ccc(C)cc1NC(=O)CSc1nc2ccccc2c(=O)[nH]1,110%
8,CCc1nnc(NC(=O)Cc2c(C)n(C(=O)c3ccc(Cl)cc3)c3ccc(OC)cc23)s1,92.6%
9,CC(C)OC(=O)C1=C(N)Oc2c(oc(CO)cc2=O)C1c1cccc(Cl)c1Cl (configuration not stated),99.5%
10,COc1ccc(NC(=O)C2Cc3ccccc3CN2S(=O)(=O)c2ccc(C)cc2)cc1 (configuration not stated),95.2%
11,Cc1cc(F)ccc1NC(=O)Cn1c(=O)cc(C(=O)NCc2ccccc2)c2ccccc21,87.1%
12,Nc1nc2c(nc(N/N=C\c3ccc(Br)c([N+](=O)[O-])c3)n2C2OC(CO)C(O)C2O)c(=O)[nH]1 (configuration not stated),101%
13,CCCOc1ccc(C=O)cc1OC,103%
14,Cc1ccc(CSc2nc3c(=O)[nH]cnc3n2-c2ccc(C)cc2)cc1,96.6%
15,OCC1OC(Nc2ccccn2)C(O)C(O)C1O (configuration not stated),111%
16,COc1cc(C)cc(OC)c1O,101%
17,COc1ccc(C(=O)Nc2ccc(-n3nc(C)c4ccccc4c3=O)cc2)cc1OC,100%
18,COCCOC(=O)c1c(C)n(CCOc2cccc(Cl)c2Cl)c2c1cc(O)c1ccccc12,99%
19,Cc1oc(-c2ccccc2)cc1C(=O)NC(Cc1c[nH]c2ccccc12)C(=O)O (configuration not stated),110%
20,COc1cccc2cc(C(=O)NCCc3c(C)[nH]c4ccc(Br)cc34)c(=O)oc12,111%
21,COc1cc(C(=O)CC2(O)C(=O)N(Cc3ccc(F)cc3)c3ccccc32)cc(OC)c1OC (configuration not stated),100%
22,CC(=O)N/C(=C\c1ccccc1)C(=O)Nc1cc(C)ccc1C,98.3%
23,Cn1c2nc(=O)[nH]c(=O)c-2nc2ccccc21,96.9%
24,N=C1S/C(=C\c2cc3c(cc2Br)OCO3)C(=O)N1c1ccc(OC(F)(F)F)cc1,106%
25,CC12CCC(C(=O)OC1=O)C2(C)C (configuration not stated),97.6%
26,COc1ccc(C(=O)Nc2ccc3nn(-c4ccccc4)nc3c2)cc1OC,96.5%

row,Compound,cell viability
1,Cc1[nH]c2ccccc2c1CCNC(=O)CCC(=O)c1ccccc1,99.3%
2,COc1cc(CNCc2cccc(OC)c2OC)cc(OC)c1,96.7%
3,O=C(CN1CCc2ccccc2C1)Nc1ccc(Cl)cn1,100%
4,CCCNC(=O)c1cc(=O)n(CC(=O)Nc2ccc3c(c2)OCO3)c2ccccc12,96.3%
5,C=CCOc1ccc(/C=C2\Oc3ccc(C(=O)OC)cc3C2=O)cc1,99.6%
6,COc1ccc(NC(=O)Cn2c(=O)cc(C(=O)N3CCCCC3)c3ccccc32)c(OC)c1,102%
7,Cn1c(SCC(=O)Nc2ccc(F)cc2)nc2c(=O)[nH]cnc21,106%
8,C=C(C)C1CCC2(C(=O)OC)CCC3(C)C(CCC4C5(C)C/C(=C\c6ccc(Br)cc6)C(=O)C(C)(C)C5CCC43C)C12 (configuration not stated),106%
9,COc1ccc(/C=C/C(=O)c2ccc(O)cc2)cc1COc1ccccc1C1CCCCC1,98.2%
10,C/C(=C\c1ccccc1)C(=O)O,111%
11,Cc1ccc(S(=O)(=O)Nc2nc3ccccc3nc2Nc2cccc(/C=C/C(=O)O)c2)cc1,106%
12,O=c1cc(-c2ccccc2)oc2c(Cl)cc(Cl)cc12,112%
13,COC(=O)C1=C(C)NC2=C(C(=O)CC(c3ccccc3)C2)C1c1cc(Br)c(O)c(OC)c1 (configuration not stated),107%
14,Cc1ccc2c(C)c(-c3ccc(Cl)cc3Cl)c(=O)oc2c1,87.2%
15,COc1ccc(-c2cc(=O)c3cc(C)cc(C)c3o2)cc1OC,106%
16,COc1ccc(CNC(=O)Cc2c(C)n(C(=O)c3ccc(Cl)cc3)c3ccc(OC)cc23)cc1,98.4%
17,CCOc1ccc(-c2nc(CSc3nc4c(=O)[nH]c(C)nc4n3C)c(C)o2)cc1,107%
18,COC(=O)C1=C(C(=O)OC)SC2(S1)C(C(=O)OC)=C(C(=O)OC)SC1=C2c2cc(C)c(C)cc2N(C(=O)c2ccc3c(c2)OCO3)C1(C)C,90.2%
19,Cc1ccc(C(=O)Oc2ccc(/C=C3/Oc4ccc(Cl)cc4C3=O)cc2)cc1,102%
20,COc1cc(C(=O)NCC23CC4CC(CC(C4)C2)C3)cc(OC)c1OC,94.8%
21,Nc1nc(N)c2nc(-c3ccccc3)c(N)nc2n1,101%
22,C[N+]12CCCCC1C(CN1C(=O)c3ccccc3C1=O)CCC2 (configuration not stated),96.4%
23,COC(=O)COc1ccc(NC(=O)c2cc(OC)c(OC)c(OC)c2)cc1OC,98.3%
24,COc1cc(C(=O)Nc2ccccc2C(=O)Nc2ccccc2)cc(OC)c1OC,36%

# Some of the entries so far, bar-delimited.
row | Compound | cell viability
2 | COc1cc(CNCc2cccc(OC)c2OC)cc(OC)c1 | 96.7%
3 | O=C(CN1CCc2ccccc2C1)Nc1ccc(Cl)cn1 | 100%
4 | CCCNC(=O)c1cc(=O)n(CC(=O)Nc2ccc3c(c2)OCO3)c2ccccc12 | 96.3%
5 | C=CCOc1ccc(/C=C2\Oc3ccc(C(=O)OC)cc3C2=O)cc1 | 99.6%
6 | COc1ccc(NC(=O)Cn2c(=O)cc(C(=O)N3CCCCC3)c3ccccc32)c(OC)c1 | 102%
7 | Cn1c(SCC(=O)Nc2ccc(F)cc2)nc2c(=O)[nH]cnc21 | 106%
8 | C=C(C)C1CCC2(C(=O)OC)CCC3(C)C(CCC4C5(C)C/C(=C\c6ccc(Br)cc6)C(=O)C(C)(C)C5CCC43C)C12 (configuration not stated) | 106%
9 | COc1ccc(/C=C/C(=O)c2ccc(O)cc2)cc1COc1ccccc1C1CCCCC1 | 98.2%
10 | C/C(=C\c1ccccc1)C(=O)O | 111%
11 | Cc1ccc(S(=O)(=O)Nc2nc3ccccc3nc2Nc2cccc(/C=C/C(=O)O)c2)cc1 | 106%
12 | O=c1cc(-c2ccccc2)oc2c(Cl)cc(Cl)cc12 | 112%
13 | COC(=O)C1=C(C)NC2=C(C(=O)CC(c3ccccc3)C2)C1c1cc(Br)c(O)c(OC)c1 (configuration not stated) | 107%
14 | Cc1ccc2c(C)c(-c3ccc(Cl)cc3Cl)c(=O)oc2c1 | 87.2%
15 | COc1ccc(-c2cc(=O)c3cc(C)cc(C)c3o2)cc1OC | 106%
16 | COc1ccc(CNC(=O)Cc2c(C)n(C(=O)c3ccc(Cl)cc3)c3ccc(OC)cc23)cc1 | 98.4%
17 | CCOc1ccc(-c2nc(CSc3nc4c(=O)[nH]c(C)nc4n3C)c(C)o2)cc1 | 107%
18 | COC(=O)C1=C(C(=O)OC)SC2(S1)C(C(=O)OC)=C(C(=O)OC)SC1=C2c2cc(C)c(C)cc2N(C(=O)c2ccc3c(c2)OCO3)C1(C)C | 90.2%
19 | Cc1ccc(C(=O)Oc2ccc(/C=C3/Oc4ccc(Cl)cc4C3=O)cc2)cc1 | 102%
